Assay [1] concerns the target U2AF65 (U2 auxiliary factor 65 kDa subunit), endogenous in 293T cells (human (endogenous in 293T)) (UniProt P26368). In words: co-IP; 293T cells transfected with GST-L-DL; immunoprecipitation with anti-U2AF65 antibody; immunoblot. For orientation: Immunoblotting shows a protein as a band on a membrane.
In assay [2] the target is U2AF65 (U2 auxiliary factor 65 kDa subunit), endogenous in N2a cells (mouse (endogenous in N2a)) (UniProt P26369). Nature of the assay: co-IP; control or L-DL knockout N2a cell lysates; immunoprecipitation with anti-U2AF65 antibody; immunoblot and densitometry (n = 3).
Assay [3] addresses T1, GST-SC35 (UniProt Q01130).
T1 sequence: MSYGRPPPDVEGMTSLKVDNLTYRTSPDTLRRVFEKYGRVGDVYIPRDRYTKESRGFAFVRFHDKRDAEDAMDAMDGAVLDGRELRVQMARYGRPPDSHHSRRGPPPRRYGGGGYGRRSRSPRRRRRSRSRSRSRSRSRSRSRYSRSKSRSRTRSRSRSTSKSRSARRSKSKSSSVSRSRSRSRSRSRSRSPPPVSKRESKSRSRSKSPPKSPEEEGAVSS
Nature of the assay: pull-down; co-affinity precipitation: GST-L-DL, GST-SC35 or GST control expressed in 293T cells; 500 μg lysate in GST-binding buffer (PBS, 0.1 mM EDTA, 0.1% Triton X-100, pH 7.4) on GST agarose beads overnight at 4 °C; washes with 0.1% SDS, 0.3% deoxycholate, 0.3% NP-40; immunoblot of endogenous partners.

The chains behind the UniProt entries cited, without tags or fusion partners.
UniProt P26368: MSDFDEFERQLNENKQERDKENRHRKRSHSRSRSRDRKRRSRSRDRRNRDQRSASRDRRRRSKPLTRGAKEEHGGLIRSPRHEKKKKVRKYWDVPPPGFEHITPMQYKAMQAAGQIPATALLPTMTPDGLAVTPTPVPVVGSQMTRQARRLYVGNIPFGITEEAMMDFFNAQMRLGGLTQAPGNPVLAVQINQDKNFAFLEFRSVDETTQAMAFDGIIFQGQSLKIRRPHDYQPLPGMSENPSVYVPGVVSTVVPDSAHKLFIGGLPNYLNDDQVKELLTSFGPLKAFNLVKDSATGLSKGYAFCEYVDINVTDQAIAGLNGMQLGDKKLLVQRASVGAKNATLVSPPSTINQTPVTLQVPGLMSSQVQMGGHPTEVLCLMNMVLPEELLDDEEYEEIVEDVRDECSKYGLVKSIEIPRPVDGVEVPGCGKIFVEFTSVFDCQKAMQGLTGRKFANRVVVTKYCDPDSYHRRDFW
UniProt P26369: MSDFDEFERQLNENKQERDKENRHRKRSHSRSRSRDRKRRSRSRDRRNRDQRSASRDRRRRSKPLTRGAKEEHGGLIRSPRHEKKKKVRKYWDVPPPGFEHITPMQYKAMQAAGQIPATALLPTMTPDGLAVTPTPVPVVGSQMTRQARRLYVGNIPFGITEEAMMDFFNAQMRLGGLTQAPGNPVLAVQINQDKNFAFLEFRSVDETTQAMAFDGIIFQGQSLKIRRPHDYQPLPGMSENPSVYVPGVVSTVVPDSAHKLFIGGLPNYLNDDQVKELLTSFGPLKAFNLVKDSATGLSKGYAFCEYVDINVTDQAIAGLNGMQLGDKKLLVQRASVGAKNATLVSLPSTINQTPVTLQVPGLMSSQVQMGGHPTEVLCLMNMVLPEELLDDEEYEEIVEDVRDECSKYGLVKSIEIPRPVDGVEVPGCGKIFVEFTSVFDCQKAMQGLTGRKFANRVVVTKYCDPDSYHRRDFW

Results are given in words; binding and its absence hold for the method and conditions named. In cells and extracts the contact can be indirect. Some entries that bind do so weakly or less than the wild type. For some of these results: Sequences can lack the tags named with a protein.

For the molecule “SF3B3 (splicing factor 3b subunit 3), endogenous in 293T cells (from UniProt Q15393 1-1217)”, the binding entry in assay [1] is on record as “binds”.

B1: SF3B3 (splicing factor 3b subunit 3), endogenous in N2a cells (protein, UniProt Q921M3 1-1217)
chain: MFLYNLTLQRATGISFAIHGNFSGTKQQEIVVSRGKILELLRPDPNTGKVHTLLTVEVFGVIRSLMAFRLTGGTKDYIVVGSDSGRIVILEYQPSKNMFEKIHQETFGKSGCRRIVPGQFLAVDPKGRAVMISAIEKQKLVYILNRDAAARLTISSPLEAHKANTLVYHVVGVDVGFENPMFACLEMDYEEADNDPTGEAAANTQQTLTFYELDLGLNHVVRKYSEPLEEHGNFLITVPGGSDGPSGVLICSENYITYKNFGDQPDIRCPIPRRRNDLDDPERGMIFVCSATHKTKSMFFFLAQTEQGDIFKITLETDEDMVTEIRLKYFDTVPVAAAMCVLKTGFLFVASEFGNHYLYQIAHLGDDDEEPEFSSAMPLEEGDTFFFQPRPLKNLVLVDELDSLSPILFCQIADLANEDTPQLYVACGRGPRSSLRVLRHGLEVSEMAVSELPGNPNAVWTVRRHIEDEFDAYIIVSFVNATLVLSIGETVEEVTDSGFLGTTPTLSCSLLGDDALVQVYPDGIRHIRADKRVNEWKTPGKKTIVKCAVNQRQVVIALTGGELVYFEMDPSGQLNEYTERKEMSADVVCMSLANVPPGEQRSRFLAVGLVDNTVRIISLDPSDCLQPLSMQALPAQPESLCIVEMGGTEKQDELGERGSIGFLYLNIGLQNGVLLRTVLDPVTGDLSDTRTRYLGSRPVKLFRVRMQGQEAVLAMSSRSWLSYSYQSRFHLTPLSYETLEFASGFASEQCPEGIVAISTNTLRILALEKLGAVFNQVAFPLQYTPRKFVIHPESNNLIIIETDHNAYTEATKAQRKQQMAEEMVEAAGEDERELAAEMAAAFLNENLPESIFGAPKAGNGQWASVIRVMNPIQGNTLDLVQLEQNEAAFSVAVCRFSNTGEDWYVLVGVAKDLILSPRSVAGGFVYTYKLVNNGEKLEFLHKTPVEEVPAAIAPFQGRVLIGVGKLLRVYDLGKKKLLRKCENKHIANYISGIQTIGHRVIVSDVQESFIWVRYKRNENQLIIFADDTYPRWVTTASLLDYDTVAGADKFGNICVVRLPPNTNDEVDEDPTGNKALWDRGLLNGASQKAEVIMNYHVGETVLSLQKTTLIPGGSESLVYTTLSGGIGILVPFTSHEDHDFFQHVEMHLRSEHPPLCGRDHLSFRSYYFPVKNVIDGDLCEQFNSMEPNKQKNVSEELDRTPPEVSKKLEDIRTRYAF
Turning to B1, the binding entry in assay [2] is recorded as “binds”.

B2: L-DL (long isoform of hnRNP DL), endogenous in 293T cells (protein, UniProt O14979 1-420)
chain: MEVPPRLSHVPPPLFPSAPATLASRSLSHWRPRPPRQLAPLLPSLAPSSARQGARRAQRHVTAQQPSRLAGGAAIKGGRRRRPDLFRRHFKSSSIQRSAAAAAATRTARQHPPADSSVTMEDMNEYSNIEEFAEGSKINASKNQQDDGKMFIGGLSWDTSKKDLTEYLSRFGEVVDCTIKTDPVTGRSRGFGFVLFKDAASVDKVLELKEHKLDGKLIDPKRAKALKGKEPPKKVFVGGLSPDTSEEQIKEYFGAFGEIENIELPMDTKTNERRGFCFITYTDEEPVKKLLESRYHQIGSGKCEIKVAQPKEVYRQQQQQQKGGRGAAAGGRGGTRGRGRGQGQNWNQGFNNYYDQGYGNYNSAYGGDQNYSGYGGYDYTGYNYGNYGYGQGYADYSGQQSTYGKASRGGGNHQNNYQPY
Turning to B2, the binding entry in assay [3] is listed as “binds”.

B3: SF3B1 (splicing factor 3b subunit 1), endogenous in N2a cells (protein, UniProt Q99NB9 1-1304)
chain: MAKIAKTHEDIEAQIREIQGKKAALDEAQGVGLDSTGYYDQEIYGGSDSRFAGYVTSIAATELEDDDDDYSSSTSLLGQKKPGYHAPVALLNDIPQSTEQYDPFAEHRPPKIADREDEYKKHRRTMIISPERLDPFADGGKTPDPKMNARTYMDVMREQHLTKEEREIRQQLAEKAKAGELKVVNGAAASQPPSKRKRRWDQTADQTPGATPKKLSSWDQAETPGHTPSLRWDETPGRAKGSETPGATPGSKIWDPTPSHTPAGAATPGRGDTPGHATPGHGGATSSARKNRWDETPKTERDTPGHGSGWAETPRTDRGGDSIGETPTPGASKRKSRWDETPASQMGGSTPVLTPGKTPIGTPAMNMATPTPGHIMSMTPEQLQAWRWEREIDERNRPLSDEELDAMFPEGYKVLPPPAGYVPIRTPARKLTATPTPLGGMTGFHMQTEDRTMKSVNDQPSGNLPFLKPDDIQYFDKLLVDVDESTLSPEEQKERKIMKLLLKIKNGTPPMRKAALRQITDKAREFGAGPLFNQILPLLMSPTLEDQERHLLVKVIDRILYKLDDLVRPYVHKILVVIEPLLIDEDYYARVEGREIISNLAKAAGLATMISTMRPDIDNMDEYVRNTTARAFAVVASALGIPSLLPFLKAVCKSKKSWQARHTGIKIVQQIAILMGCAILPHLRSLVEIIEHGLVDEQQKVRTISALAIAALAEAATPYGIESFDSVLKPLWKGIRQHRGKGLAAFLKAIGYLIPLMDAEYANYYTREVMLILIREFQSPDEEMKKIVLKVVKQCCGTDGVEANYIKTEILPPFFKHFWQHRMALDRRNYRQLVDTTVELANKVGAAEIISRIVDDLKDEAEQYRKMVMETIEKIMGNLGAADIDHKLEEQLIDGILYAFQEQTTEDSVMLNGFGTVVNALGKRVKPYLPQICGTVLWRLNNKSAKVRQQAADLISRTAVVMKTCQEEKLMGHLGVVLYEYLGEEYPEVLGSILGALKAIVNVIGMHKMTPPIKDLLPRLTPILKNRHEKVQENCIDLVGRIADRGAEYVSAREWMRICFELLELLKAHKKAIRRATVNTFGYIAKAIGPHDVLATLLNNLKVQERQNRVCTTVAIAIVAETCSPFTVLPALMNEYRVPELNVQNGVLKSLSFLFEYIGEMGKDYIYAVTPLLEDALMDRDLVHRQTASAVVQHMSLGVYGFGCEDSLNHLLNYVWPNVFETSPHVIQAVMGALEGLRVAIGPCRMLQYCLQGLFHPARKVRDVYWKIYNSIYIGSQDALIAHYPRIYNDDKNTYIRYDLDYIL
Turning to B3, the binding result in assay [2] was “binds”.

The values above are taken from paper PMC8456587.
